No constants are given. Whether binding was seen depends on the method and setting. In cells and extracts the contact can be indirect. These calls come from enrichment with a bait or labelling near it, and not all partners need be listed. Sequences can lack the tags named with a protein.
B1: Mccc2 (protein, UniProt Q9HCC0 23-563)
chain: YHGDSVASLGTQPDLGSALYQENYKQMKALVNQLHERVEHIKLGGGEKARALHISRGKLLPRERIDNLIDPGSPFLELSQFAGYQLYDNEEVPGGGIITGIGRVSGVECMIIANDATVKGGAYYPVTVKKQLRAQEIAMQNRLPCIYLVDSGGAYLPRQADVFPDRDHFGRTFYNQAIMSSKNIAQIAVVMGSCTAGGAYVPAMADENIIVRKQGTIFLAGPPLVKAATGEEVSAEDLGGADLHCRKSGVSDHWALDDHHALHLTRKVVRNLNYQKKLDVTIEPSEEPLFPADELYGIVGANLKRSFDVREVIARIVDGSRFTEFKAFYGDTLVTGFARIFGYPVGIVGNNGVLFSESAKKGTHFVQLCCQRNIPLLFLQNITGFMVGREYEAEGIAKDGAKMVAAVACAQVPKITLIIGGSYGAGNYGMCGRAYSPRFLYIWPNARISVMGGEQAANVLATITKDQRAREGKQFSSADEAALKEPIIKKFEEEGNPYYSSARVWDDGIIDPADTRLVLGLSFSAALNAPIEKTDFGIFRM
B2: Ssr1 (protein, UniProt P43307 19-286)
chain: VLFRGGPRGLLAVAQDLTEDEETVEDSIIEDEDDEAEVEEDEPTDLVEDKEEEDVSGEPEASPSADTTILFVKGEDFPANNIVKFLVGFTNKGTEDFIVESLDASFRYPQDYQFYIQNFTALPLNTVVPPQRQATFEYSFIPAEPMGGRPFGLVINLNYKDLNGNVFQDAVFNQTVTVIEREDGLDGETIFMYMFLAGLGLLVIVGLHQLLESRKRKRPIQKVEMGTSSQNDVDMSWIPQETLNQINKASPRRLPRKRAQKRSVGSDE
B3: Luc7l3 (protein, UniProt O95232 1-432)
chain: MISAAQLLDELMGRDRNLAPDEKRSNVRWDHESVCKYYLCGFCPAELFTNTRSDLGPCEKIHDENLRKQYEKSSRFMKVGYERDFLRYLQSLLAEVERRIRRGHARLALSQNQQSSGAAGPTGKNEEKIQVLTDKIDVLLQQIEELGSEGKVEEAQGMMKLVEQLKEERELLRSTTSTIESFAAQEKQMEVCEVCGAFLIVGDAQSRVDDHLMGKQHMGYAKIKATVEELKEKLRKRTEEPDRDERLKKEKQEREEREKEREREREERERKRRREEEEREKERARDRERRKRSRSRSRHSSRTSDRRCSRSRDHKRSRSRERRRSRSRDRRRSRSHDRSERKHRSRSRDRRRSKSRDRKSYKHRSKSRDREQDRKSKEKEKRGSDDKKSSVKSGSREKQSEDTNTESKESDTKNEVNGTSEDIKSEGDTQSN
B4: Arg1 (protein, UniProt P05089 1-322)
chain: MSAKSRTIGIIGAPFSKGQPRGGVEEGPTVLRKAGLLEKLKEQECDVKDYGDLPFADIPNDSPFQIVKNPRSVGKASEQLAGKVAEVKKNGRISLVLGGDHSLAIGSISGHARVHPDLGVIWVDAHTDINTPLTTTSGNLHGQPVSFLLKELKGKIPDVPGFSWVTPCISAKDIVYIGLRDVDPGEHYILKTLGIKYFSMTEVDRLGIGKVMEETLSYLLGRKKRPIHLSFDVDGLDPSFTPATGTPVVGGLTYREGLYITEEIYKTGLLSGLDIMEVNPSLGKTPEEVTRTVNTAVAITLACFGLAREGNHKPIDYLNPPK
B5: Ltv1 (protein, UniProt Q96GA3 1-475)
chain: MPHRKKKPFIEKKKAVSFHLVHRSQRDPLAADESAPQRVLLPTQKIDNEERRAEQRKYGVFFDDDYDYLQHLKEPSGPSELIPSSTFSAHNRREEKEETLVIPSTGIKLPSSVFASEFEEDVGLLNKAAPVSGPRLDFDPDIVAALDDDFDFDDPDNLLEDDFILQANKATGEEEGMDIQKSENEDDSEWEDVDDEKGDSNDDYDSAGLLSDEDCMSVPGKTHRAIADHLFWSEETKSRFTEYSMTSSVMRRNEQLTLHDERFEKFYEQYDDDEIGALDNAELEGSIQVDSNRLQEVLNDYYKEKAENCVKLNTLEPLEDQDLPMNELDESEEEEMITVVLEEAKEKWDCESICSTYSNLYNHPQLIKYQPKPKQIRISSKTGIPLNVLPKKGLTAKQTERIQMINGSDLPKVSTQPRSKNESKEDKRARKQAIKEERKERRVEKKANKLAFKLEKRRQEKELLNLKKNVEGLKL
B6: Aatf (protein, UniProt Q9NY61 1-560)
chain: MAGPQPLALQLEQLLNPRPSEADPEADPEEATAARVIDRFDEGEDGEGDFLVVGSIRKLASASLLDTDKRYCGKTTSRKAWNEDHWEQTLPGSSDEEISDEEGSGDEDSEGLGLEEYDEDDLGAAEEQECGDHRESKKSRSHSAKTPGFSVQSISDFEKFTKGMDDLGSSEEEEDEESGMEEGDDAEDSQGESEEDRAGDRNSEDDGVVMTFSSVKVSEEVEKGRAVKNQIALWDQLLEGRIKLQKALLTTNQLPQPDVFPLFKDKGGPEFSSALKNSHKALKALLRSLVGLQEELLFQYPDTRYLVDGTKPNAGSEEISSEDDELVEEKKQQRRRVPAKRKLEMEDYPSFMAKRFADFTVYRNRTLQKWHDKTKLASGKLGKGFGAFERSILTQIDHILMDKERLLRRTQTKRSVYRVLGKPEPAAQPVPESLPGEPEILPQAPANAHLKDLDEEIFDDDDFYHQLLRELIERKTSSLDPNDQVAMGRQWLAIQKLRSKIHKKVDRKASKGRKLRFHVLSKLLSFMAPIDHTTMNDDARTELYRSLFGQLHPPDEGHGD
B7: Csrp2 (protein, UniProt Q16527 1-193)
chain: MPVWGGGNKCGACGRTVYHAEEVQCDGRSFHRCCFLCMVCRKNLDSTTVAIHDEEIYCKSCYGKKYGPKGYGYGQGAGTLNMDRGERLGIKPESVQPHRPTTNPNTSKFAQKYGGAEKCSRCGDSVYAAEKIIGAGKPWHKNCFRCAKCGKSLESTTLTEKEGEIYCKGCYAKNFGPKGFGYGQGAGALVHAQ
B8: Ap3d1 (protein, UniProt O14617 1-1153)
chain: MALKMVKGSIDRMFDKNLQDLVRGIRNHKEDEAKYISQCIDEIKQELKQDNIAVKANAVCKLTYLQMLGYDISWAAFNIIEVMSASKFTFKRIGYLAASQSFHEGTDVIMLTTNQIRKDLSSPSQYDTGVALTGLSCFVTPDLARDLANDIMTLMSHTKPYIRKKAVLIMYKVFLKYPESLRPAFPRLKEKLEDPDPGVQSAAVNVICELARRNPKNYLSLAPLFFKLMTSSTNNWVLIKIIKLFGALTPLEPRLGKKLIEPLTNLIHSTSAMSLLYECVNTVIAVLISLSSGMPNHSASIQLCVQKLRILIEDSDQNLKYLGLLAMSKILKTHPKSVQSHKDLILQCLDDKDESIRLRALDLLYGMVSKKNLMEIVKKLMTHVDKAEGTTYRDELLTKIIDICSQSNYQYITNFEWYISILVELTRLEGTRHGHLIAAQMLDVAIRVKAIRKFAVSQMSALLDSAHLLASSTQRNGICEVLYAAAWICGEFSEHLQEPHHTLEAMLRPRVTTLPGHIQAVYVQNVVKLYASILQQKEQAGEAEGAQAVTQLMVDRLPQFVQSADLEVQERASCILQLVKHIQKLQAKDVPVAEEVSALFAGELNPVAPKAQKKVPVPEGLDLDAWINEPLSDSESEDERPRAVFHEEEQRRPKHRPSEADEEELARRREARKQEQANNPFYIKSSPSPQKRYQDTPGVEHIPVVQIDLSVPLKVPGLPMSDQYVKLEEERRHRQKLEKDKRRKKRKEKEKKGKRRHSSLPTESDEDIAPAQQVDIVTEEMPENALPSDEDDKDPNDPYRALDIDLDKPLADSEKLPIQKHRNTETSKSPEKDVPMVEKKSKKPKKKEKKHKEKERDKEKKKEKEKKKSPKPKKKKHRKEKEERTKGKKKSKKQPPGSEEAAGEPVQNGAPEEEQLPPESSYSLLAENSYVKMTCDIRGSLQEDSQVTVAIVLENRSSSILKGMELSVLDSLNARMARPQGSSVHDGVPVPFQLPPGVSNEAQYVFTIQSIVMAQKLKGTLSFIAKNDEGATHEKLDFRLHFSCSSYLITTPCYSDAFAKLLESGDLSMSSIKVDGIRMSFQNLLAKICFHHHFSVVERVDSCASMYSRSIQGHHVCLLVKKGENSVSVDGKCSDSTLLSNLLEEMKATLAKC
B9: Riok1 (protein, UniProt Q9BRS2 1-568)
chain: MDYRRLLMSRVVPGQFDDADSSDSENRDLKTVKEKDDILFEDLQDNVNENGEGEIEDEEEEGYDDDDDDWDWDEGVGKLAKGYVWNGGSNPQANRQTSDSSSAKMSTPADKVLRKFENKINLDKLNVTDSVINKVTEKSRQKEADMYRIKDKADRATVEQVLDPRTRMILFKMLTRGIITEINGCISTGKEANVYHASTANGESRAIKIYKTSILVFKDRDKYVSGEFRFRHGYCKGNPRKMVKTWAEKEMRNLIRLNTAEIPCPEPIMLRSHVLVMSFIGKDDMPAPLLKNVQLSESKARELYLQVIQYMRRMYQDARLVHADLSEFNMLYHGGGVYIIDVSQSVEHDHPHALEFLRKDCANVNDFFMRHSVAVMTVRELFEFVTDPSITHENMDAYLSKAMEIASQRTKEERSSQDHVDEEVFKRAYIPRTLNEVKNYERDMDIIMKLKEEDMAMNAQQDNILYQTVTGLKKDLSGVQKVPALLENQVEERTCSDSEDIGSSECSDTDSEEQGDHARPKKHTTDPDIDKKERKKMVKEAQREKRKNKIPKHVKKRKEKTAKTKKGK
B10: Ap3b1 (protein, UniProt O00203 1-1094)
chain: MSSNSFPYNEQSGGGEATELGQEATSTISPSGAFGLFSSDLKKNEDLKQMLESNKDSAKLDAMKRIVGMIAKGKNASELFPAVVKNVASKNIEIKKLVYVYLVRYAEEQQDLALLSISTFQRALKDPNQLIRASALRVLSSIRVPIIVPIMMLAIKEASADLSPYVRKNAAHAIQKLYSLDPEQKEMLIEVIEKLLKDKSTLVAGSVVMAFEEVCPDRIDLIHKNYRKLCNLLVDVEEWGQVVIIHMLTRYARTQFVSPWKEGDELEDNGKNFYESDDDQKEKTDKKKKPYTMDPDHRLLIRNTKPLLQSRNAAVVMAVAQLYWHISPKSEAGIISKSLVRLLRSNREVQYIVLQNIATMSIQRKGMFEPYLKSFYVRSTDPTMIKTLKLEILTNLANEANISTLLREFQTYVKSQDKQFAAATIQTIGRCATNILEVTDTCLNGLVCLLSNRDEIVVAESVVVIKKLLQMQPAQHGEIIKHMAKLLDSITVPVARASILWLIGENCERVPKIAPDVLRKMAKSFTSEDDLVKLQILNLGAKLYLTNSKQTKLLTQYILNLGKYDQNYDIRDRTRFIRQLIVPNVKSGALSKYAKKIFLAQKPAPLLESPFKDRDHFQLGTLSHTLNIKATGYLELSNWPEVAPDPSVRNVEVIELAKEWTPAGKAKQENSAKKFYSESEEEEDSSDSSSDSESESGSESGEQGESGEEGDSNEDSSEDSSSEQDSESGRESGLENKRTAKRNSKAKGKSDSEDGEKENEKSKTSDSSNDESSSIEDSSSDSESESEPESESESRRVTKEKEKKTKQDRTPLTKDVSLLDLDDFNPVSTPVALPTPALSPSLMADLEGLHLSTSSSVISVSTPAFVPTKTHVLLHRMSGKGLAAHYFFPRQPCIFGDKMVSIQITLNNTTDRKIENIHIGEKKLPIGMKMHVFNPIDSLEPEGSITVSMGIDFCDSTQTASFQLCTKDDCFNVNIQPPVGELLLPVAMSEKDFKKEQGVLTGMNETSAVIIAAPQNFTPSVIFQKVVNVANVGAVPSGQDNIHRFAAKTVHSGSLMLVTVELKEGSTAQLIINTEKTVIGSVLLRELKPVLSQG

Each binder was assayed against Biotin-FOXC1 (mouse) (UniProt Q61572) (assay: affinity purification with mass spectrometry; streptavidin-agarose precipitation of biotinylated FOXC1 from nuclear extract of stable HEK293T cells (293T-Biotin-FOXC1); IP350 buffer (350 mM NaCl, 20 mM Tris-HCl pH 7.5, 0.5% NP40, 1 mM EDTA, 10% glycerin); SDS-PAGE, LC-ESI-MS/MS; proteins of the 293T-Biotin control deducted).

binding, binds:
B1
B2
B3
B4
B5
B6
B7
B8
B9
B10

Source: publication PMC7956269
